Assay results reported in PubChem BioAssay AID540276 (National Center for Advancing Translational Sciences (NCATS), 2011).
In all, about 300,000 compounds went through this assay and about 5,400 (1.8%) were called active. The shares of active, inactive and inconclusive entries below differ from those in the screen. The call rests on the fitted dose curve; tested in HEK293 cells. Potencies of inconclusive entries are doubtful fits and often do not repeat.

Assay: qHTS for inhibitors of binding or entry into cells for Marburg Virus
Details: Marburg virus pseudotyped entry inhibition, cell reporter; activity change, negative = inhibition: at 37.8 µM (top of the series) unless noted
On the % scale 0 is the no-effect control and ±100 the full control effect; potency means the concentration at half of the fitted maximal effect.

| Compound | Potency | activity change, negative = inhibition |
| --- | --- | --- |
| C[C@@H](NC(=O)/C(C#N)=C\c1ccc(O)c(O)c1)c1ccccc1 | inconclusive: 8.91 µM [inhibitor, partial curve] |  |
| O=C(COc1ccc(Cl)cc1)NCCc1ccccn1 | inconclusive: 2.82 µM [inhibitor, single point] |  |
| Cc1ccc(C(=O)N2CCCC(CCC(=O)N3CCN(c4ccccn4)CC3)C2)s1 (stereo not drawn) | inconclusive: 20 µM [inhibitor, single point] |  |
| O=C(COC(=O)CNC(=O)c1cccc(F)c1)NCCC1=CCCCC1 |  | inactive: 7.06% |
| C=CCOc1cccc(C2C(C(=O)c3ccco3)=C(O)C(=O)N2Cc2ccco2)c1 (stereo not drawn) |  | inactive: -0.902% [at 46.1 µM] |
| c1ccc(-c2onc3c2CCCC3)cc1 |  | inactive: 0.886% |
| Cc1ccc2c(c1)C(=NC1CCCCC1)c1cc3ccccc3nc1-2 | inconclusive: 2.31 µM [activator, partial curve] |  |
| CC(=O)OCC1=C(C(=O)O)N2C(=O)C(NC(=O)CCn3nc(C(F)(F)F)c(Br)c3C3CC3)C2SC1 (stereo not drawn) |  | inactive: -9.89% [at 46.1 µM] |
| CCc1ccccc1N(CC(=O)NCc1ccccc1)C(=O)CCC(=O)Nc1ccccn1 |  | inactive: -11.2% |
| O=C(c1ccco1)N1CCN(Cc2nnc(-c3ccccc3)o2)CC1 |  | inactive: -7.53% |
| CCCSc1ncc(Cl)c(C(=O)Nc2sc3c(c2C(N)=O)CCCC3)n1 |  | inactive: 9.91% [at 46.1 µM] |
| Cc1cc(C)c(NC(=S)NC(NC(=O)c2ccccc2)C(Cl)(Cl)Cl)c(C)c1 (stereo not drawn) | inconclusive: 0.794 µM [inhibitor, partial curve, poor fit] |  |
| COC(=O)c1[nH]c2cccc(Cl)c2c1NC(=O)CN1CCCCC1C (stereo not drawn) | inconclusive: 1.83 µM [inhibitor, partial curve, poor fit] |  |
| Cc1ccccc1CNC(=O)Cc1csc2ccccc12 | inconclusive: 3.98 µM [activator, partial curve, poor fit] |  |
| CCOC(=O)C(C)On1c(-c2ccccc2)nc2ccc([N+](=O)[O-])cc21 (stereo not drawn) |  | inactive: -2.75% |
| CCOc1ccccc1NC(=O)N1CCC2(CC1)OCCO2 |  | inactive: 20.9% |
| C=CCn1c(COc2ccc(F)cc2)nnc1SCC(=O)NC1CC1 |  | inactive: -2.24% [at 46.1 µM] |
| O=C1C=C(c2ccccc2)C[C@H](c2cccs2)[C@H]1n1cnc([N+](=O)[O-])c1 | inconclusive: 3.66 µM [inhibitor, full curve, poor fit] |  |
| C=CCNC(=O)COc1ccc(Br)cc1Cl |  | inactive: 6.74% |
| COc1ccc(/C=N/n2c(SC)nnc2-c2ccccc2)cc1C | inconclusive: 35.5 µM [inhibitor, single point] |  |
| CCCc1ccc(-c2cc(C(=O)NCCc3ccc(S(N)(=O)=O)cc3)c3ccccc3n2)cc1 |  | inactive: -17.2% |
| CC(Oc1ccc(-c2nnco2)cc1)C(=O)N1CCOCC1 (stereo not drawn) | inconclusive: 31.6 µM [activator, single point] |  |

| Compound | Potency | activity change, negative = inhibition |
| --- | --- | --- |
| CCCCCC(=O)N1C[C@@H](n2cc(-c3ccc(F)cc3)nn2)[C@H](O)C[C@H]1c1ccc(C)cc1 | inconclusive: 6.28 µM [inhibitor, full curve, poor fit] |  |
| CCn1c2ccc(C)cc2c2nnc(SCCN3CCCCC3)nc21 | inconclusive: 35.5 µM [inhibitor, single point] |  |
| CC(=O)Nc1ccc2nc(-c3ccco3)[nH]c2c1 | inconclusive: 22.4 µM [activator, partial curve, poor fit] |  |
| CN(C)c1ccc(C=C(C#N)C#N)cc1 | inconclusive: 11.2 µM [activator, partial curve, poor fit] |  |
| Cc1cc(-c2n[nH]c(=S)n2/N=C/C(Cl)=C/c2ccccc2)n[nH]1 | inconclusive: 29.1 µM [inhibitor, partial curve, poor fit] |  |
| Cc1ccc([N+](=O)[O-])cc1NC(=O)CCSc1ccc(Cl)cc1 | inconclusive: 14.1 µM [inhibitor, single point] |  |
| O=C(NCC1CCCO1)/C(=C/c1ccc(Cl)cc1)NC(=O)c1ccccc1 (stereo not drawn) | inconclusive: 4.47 µM [activator, partial curve, poor fit] |  |
| c1ccc2sc(NC3=NCCN3)nc2c1 | inconclusive: 5.62 µM [activator, single point] |  |
| Cc1nc2ccc(NC(=O)COc3ccccc3[N+](=O)[O-])cc2s1 |  | inactive: 0.161% [at 46.1 µM] |
| COc1ccc(NC(=O)c2cc(-c3ccc(OC)c(OC)c3)nc3ccccc23)c(OC)c1 | inconclusive: 11.2 µM [inhibitor, single point] |  |
| COc1cccc(NC2=CC(c3ccc(C(C)C)cc3)N(c3cccc(OC)c3)C2=O)c1 (stereo not drawn) |  | inactive: 0.42% [at 46.1 µM] |
| CSc1ccc(/C=C(/NC(=O)c2ccccc2)C(=O)NCCCn2ccnc2)cc1 | inconclusive: 35.5 µM [inhibitor, single point] |  |
| O=C(O)CSc1nc2sc3c(c2c(=O)n1Cc1ccccc1)CCCCC3 | inconclusive: 1.26 µM [inhibitor, single point] |  |
| COc1ccc(S(=O)(=O)N(C)c2ccc(C(=O)NC3CCCC3)cc2)cc1 | inconclusive: 0.501 µM [inhibitor, full curve, poor fit] |  |
| N#CC1(C#N)CC(C=O)=C(N)C1(C#N)CC(=O)c1ccc(F)cc1 (stereo not drawn) | inconclusive: 2.24 µM [inhibitor, partial curve, poor fit] |  |
| O=c1oc2ccccc2c(Nc2cc3ccccc3cc2O)c1[N+](=O)[O-] | inconclusive: 7.08 µM [activator, partial curve, poor fit] |  |
| Cc1ccccc1S(=O)(=O)Cc1ccc(C(=O)NCCN(Cc2ccccc2)C(C)C)o1 | inconclusive: 11.2 µM [inhibitor, single point] |  |
| CNS(=O)(=O)c1cc(N(C)S(=O)(=O)c2ccc(C)cc2)c(C)cc1C | inconclusive: 35.5 µM [inhibitor, single point] |  |
| O=C(CSc1nnc(-c2cccs2)n1-c1cccc(Cl)c1)c1cccc2c1OCCO2 | inconclusive: 6.51 µM [inhibitor, single point] |  |
| CSc1nc(N)nc(-c2cccs2)c1C#N | inconclusive: 11.2 µM [activator, partial curve, poor fit] |  |
| Cn1c(=O)[nH]c2nnc(-c3ccc(Cl)c(Cl)c3)nc2c1=O | inconclusive: 6.31 µM [inhibitor, full curve, poor fit] |  |

Some of the entries above, set out differently.
Compound	Potency	activity change, negative = inhibition
C[C@@H](NC(=O)/C(C#N)=C\c1ccc(O)c(O)c1)c1ccccc1	inconclusive: 8.91 µM [inhibitor, partial curve]	
O=C(COc1ccc(Cl)cc1)NCCc1ccccn1	inconclusive: 2.82 µM [inhibitor, single point]	
Cc1ccc(C(=O)N2CCCC(CCC(=O)N3CCN(c4ccccn4)CC3)C2)s1 (stereo not drawn)	inconclusive: 20 µM [inhibitor, single point]	
O=C(COC(=O)CNC(=O)c1cccc(F)c1)NCCC1=CCCCC1		inactive: 7.06%
C=CCOc1cccc(C2C(C(=O)c3ccco3)=C(O)C(=O)N2Cc2ccco2)c1 (stereo not drawn)		inactive: -0.902% [at 46.1 µM]
c1ccc(-c2onc3c2CCCC3)cc1		inactive: 0.886%
Cc1ccc2c(c1)C(=NC1CCCCC1)c1cc3ccccc3nc1-2	inconclusive: 2.31 µM [activator, partial curve]	
CC(=O)OCC1=C(C(=O)O)N2C(=O)C(NC(=O)CCn3nc(C(F)(F)F)c(Br)c3C3CC3)C2SC1 (stereo not drawn)		inactive: -9.89% [at 46.1 µM]
CCc1ccccc1N(CC(=O)NCc1ccccc1)C(=O)CCC(=O)Nc1ccccn1		inactive: -11.2%
